Results deposited as PubChem BioAssay AID504764 (Drosophila RNAi Screening Center, 2011).
Aim: 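Knock-downs that raise or lower a Notch target reporter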 (primary screen). Cells: Drosophila Kc167 cells. Reagents: long dsRNA against Drosophila genes. Timing: about 5 days (4 days dsRNA, then 24 h after transfection). Challenge: transfection of constitutively active membrane-tethered Notch lacking the extracellular domain, read 24 h later. Detection: 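Light from a Notch-responsive E(spl)m3 luciferase reporter under active Notch, with control-promoter and no-Notch reporter wells to normalise; raw counts from paired wells a and b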. Scale: induced reporter light, run 1, well a and induced reporter light, run 1, well b: higher = more light from the Notch target reporter with active Notch; control promoter light, run 1, well a and control promoter light, run 1, well b: higher = more light from the viral control promoter (cell number, transfection, viability); uninduced reporter light, run 1, well a: higher = more light from the Notch target reporter without active Notch. Hit rule: 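Wells with low control signal or poorly matching duplicates excluded; duplicates averaged; per source plate, z beyond ±2 for induced/control log2 ratio or beyond ±1.8 for induced/uninduced marks a hit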. Calls: active = modifier hit (raised or lowered Notch signal); inactive = not a hit.
In all, the deposit lists about 22,000 reagents; below is a random part of those with a known target gene and a result. Over the whole deposit, 403 (1.9%) are marked active. 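Unnormalised raw counts per well; ratio z-scores behind the hit calls and whether each hit raises or lowers signal are not deposited.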 A plus sign joins genes that one reagent is predicted to hit. Reagent sequences are not shown. Not given: the amount of reagent.

gene knocked down	DRSC id	induced reporter light, run 1, well a	induced reporter light, run 1, well b	control promoter light, run 1, well a	control promoter light, run 1, well b	uninduced reporter light, run 1, well a	activity call
CG42362 + CG42363	DRSC04265	2.45e5	2.28e5	2.00e5	2.27e5	15820	inactive
Aduk	DRSC16451	1.03e5	1.10e5	95170	86820	4630	inactive
CG1273	DRSC08291	1.37e5	1.69e5	2.78e5	2.36e5	13330	inactive
fs(1)K10	DRSC18775	1.78e5	1.62e5	1.52e5	1.44e5	11090	inactive
al	DRSC00799	84485	83935	61995	34875	7900	active
NiPp1	DRSC07307	57485	69685	88495	83610	4025	inactive
obst-F	DRSC10805	1.23e5	1.43e5	1.16e5	1.25e5	7980	inactive
Dlc90F	DRSC16649	1.57e5	1.62e5	2.02e5	2.04e5	14755	inactive
CG3907	DRSC04432	1.30e5	1.45e5	1.33e5	1.31e5	9640	inactive
Atg7	DRSC05741	1.17e5	1.04e5	1.87e5	1.25e5	7430	inactive
Atg7	DRSC06937	1.18e5	1.11e5	1.30e5	1.12e5	8678	inactive
laf	DRSC12246	1.01e5	86595	1.42e5	1.32e5	9190	inactive
RabX6	DRSC08223	2.65e5	2.30e5	2.72e5	2.37e5	16695	inactive
CG13096	DRSC02198	1.10e5	1.37e5	98500	1.33e5	14650	inactive
Xxylt	DRSC04107	1.93e5	1.84e5	1.53e5	1.74e5	10728	inactive
etaTry	DRSC07613	1.13e5	1.22e5	1.89e5	1.55e5	11115	inactive
Tbce	DRSC04897	2.10e5	2.34e5	2.08e5	2.20e5	15480	inactive
CG9312	DRSC16471	1.39e5	1.43e5	1.12e5	80910	10500	inactive
Snap29	DRSC04721	1.48e5	1.28e5	1.59e5	1.62e5	9925	inactive
CG34202	DRSC05907	1.44e5	1.27e5	2.06e5	2.02e5	11682	inactive
Edg78E	DRSC11863	1.40e5	1.07e5	1.04e5	79655	5030	inactive
CG6220	DRSC06969	98460	94715	1.31e5	1.28e5	10520	inactive
CG13801	DRSC08335	1.03e5	1.34e5	1.86e5	1.58e5	6135	inactive
mRpL16	DRSC18550	2.26e5	2.17e5	2.82e5	2.94e5	15945	inactive
CG8407	DRSC07167	1.07e5	1.22e5	1.67e5	2.31e5	11990	active
bgcn	DRSC04062	1.82e5	1.39e5	1.77e5	1.89e5	12580	inactive
bgcn	DRSC04063	1.49e5	1.47e5	1.85e5	1.86e5	12685	active
CG4622	DRSC04479	2.01e5	1.71e5	1.29e5	1.79e5	13700	inactive
CG34266	DRSC08323	1.29e5	1.39e5	1.81e5	2.18e5	7405	inactive
Coq8	DRSC19900	1.33e5	1.40e5	3.24e5	3.06e5	11525	inactive
Drsl5	DRSC08159	1.03e5	1.22e5	1.44e5	1.44e5	8775	inactive
CG14422	DRSC17919	1.11e5	1.28e5	2.00e5	2.39e5	8085	inactive
CG43902	DRSC17999	1.03e5	82120	2.33e5	1.55e5	6985	inactive
CG13403	DRSC19535	57295	52120	84325	58770	8525	inactive
Cep290	DRSC08359	98620	1.06e5	1.32e5	1.56e5	6440	inactive
CG15472	DRSC18055	1.59e5	1.59e5	2.85e5	3.18e5	11245	inactive
CG11658	DRSC09852	1.61e5	1.24e5	2.03e5	1.39e5	6760	inactive
CG15283	DRSC01980	1.49e5	1.63e5	1.42e5	1.27e5	13060	inactive
Nt5c	DRSC06711	3.22e5	2.51e5	1.90e5	1.58e5	16265	active
grim	DRSC11352	38090	34720	21530	21470	4520	inactive
Cpr76Bc	DRSC11062	1.23e5	1.04e5	91165	91545	6610	inactive
FASN3	DRSC20882	98580	1.00e5	92620	1.18e5	9120	inactive
CG6650	DRSC10685	1.27e5	1.62e5	1.26e5	1.10e5	9500	inactive
CG18233	DRSC10308	1.52e5	1.51e5	2.23e5	2.06e5	10860	inactive
CG6118	DRSC15968	38405	32535	21270	22935	9965	inactive
Tbca	DRSC15395	1.57e5	1.34e5	2.02e5	2.50e5	11725	inactive
Faa	DRSC08451	1.22e5	1.53e5	76655	29140	12245	inactive
Moca-cyp	DRSC15364	1.95e5	2.22e5	2.43e5	2.46e5	12760	inactive
wrm1	DRSC11007	78385	97960	38665	16340	9390	inactive
CG9215	DRSC20171	58560	49095	68610	64870	7820	inactive
CG12170	DRSC12199	1.21e5	1.54e5	84185	83395	10835	inactive
Spn42Dc	DRSC05010	1.49e5	1.77e5	2.04e5	1.94e5	14295	inactive
Zip42C.2	DRSC05004	1.83e5	1.82e5	1.66e5	1.76e5	13725	inactive
CG15754	DRSC19719	92875	94515	1.57e5	1.61e5	7042	inactive
CG30393	DRSC04253	80975	60845	79295	61465	4755	inactive
Hr83	DRSC12521	64015	58060	53190	46205	4855	inactive
shep	DRSC08748	6735	7170	7260	6185	4605	inactive
shep	DRSC09765	3.01e5	1.81e5	3.07e5	2.63e5	12228	inactive
shep	DRSC09771	1.26e5	1.24e5	90605	45345	12110	inactive
trol	DRSC17714	60080	80960	83405	91285	5065	inactive
trol	DRSC17718	84940	1.14e5	1.17e5	1.42e5	7725	inactive
trol	DRSC18613	1.19e5	98050	1.70e5	2.16e5	7855	inactive
trol	DRSC18814	1.05e5	1.23e5	1.93e5	2.12e5	7935	inactive
CG4537	DRSC02756	1.21e5	1.62e5	85135	92810	18800	inactive

An excerpt of the results above:
gene knocked down	DRSC id	induced reporter light, run 1, well a	induced reporter light, run 1, well b	control promoter light, run 1, well a	control promoter light, run 1, well b	uninduced reporter light, run 1, well a	activity call
CG14422	DRSC17919	1.11e5	1.28e5	2.00e5	2.39e5	8085	inactive
CG43902	DRSC17999	1.03e5	82120	2.33e5	1.55e5	6985	inactive
CG13403	DRSC19535	57295	52120	84325	58770	8525	inactive
